From paper PMC7052135

Amino acid sequences for entries named in this document (tags omitted).
UniProt P42224: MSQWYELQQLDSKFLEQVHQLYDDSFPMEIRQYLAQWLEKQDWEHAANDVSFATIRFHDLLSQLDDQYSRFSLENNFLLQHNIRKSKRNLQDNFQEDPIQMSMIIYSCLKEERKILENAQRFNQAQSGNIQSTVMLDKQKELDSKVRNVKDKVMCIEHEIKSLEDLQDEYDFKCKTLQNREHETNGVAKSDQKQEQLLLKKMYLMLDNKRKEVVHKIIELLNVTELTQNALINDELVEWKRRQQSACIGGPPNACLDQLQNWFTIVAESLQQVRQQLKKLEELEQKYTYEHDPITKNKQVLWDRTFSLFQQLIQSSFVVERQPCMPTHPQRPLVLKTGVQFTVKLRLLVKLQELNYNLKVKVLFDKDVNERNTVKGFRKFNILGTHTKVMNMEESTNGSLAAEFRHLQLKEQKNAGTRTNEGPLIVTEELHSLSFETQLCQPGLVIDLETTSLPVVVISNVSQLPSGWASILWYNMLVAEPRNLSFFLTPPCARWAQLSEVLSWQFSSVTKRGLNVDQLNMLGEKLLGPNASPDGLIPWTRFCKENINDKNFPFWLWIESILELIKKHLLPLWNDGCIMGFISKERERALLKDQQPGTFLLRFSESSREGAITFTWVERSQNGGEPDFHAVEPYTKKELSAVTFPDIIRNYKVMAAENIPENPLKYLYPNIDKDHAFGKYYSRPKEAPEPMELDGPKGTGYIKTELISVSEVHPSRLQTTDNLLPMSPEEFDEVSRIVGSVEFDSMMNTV
UniProt Q96EP0: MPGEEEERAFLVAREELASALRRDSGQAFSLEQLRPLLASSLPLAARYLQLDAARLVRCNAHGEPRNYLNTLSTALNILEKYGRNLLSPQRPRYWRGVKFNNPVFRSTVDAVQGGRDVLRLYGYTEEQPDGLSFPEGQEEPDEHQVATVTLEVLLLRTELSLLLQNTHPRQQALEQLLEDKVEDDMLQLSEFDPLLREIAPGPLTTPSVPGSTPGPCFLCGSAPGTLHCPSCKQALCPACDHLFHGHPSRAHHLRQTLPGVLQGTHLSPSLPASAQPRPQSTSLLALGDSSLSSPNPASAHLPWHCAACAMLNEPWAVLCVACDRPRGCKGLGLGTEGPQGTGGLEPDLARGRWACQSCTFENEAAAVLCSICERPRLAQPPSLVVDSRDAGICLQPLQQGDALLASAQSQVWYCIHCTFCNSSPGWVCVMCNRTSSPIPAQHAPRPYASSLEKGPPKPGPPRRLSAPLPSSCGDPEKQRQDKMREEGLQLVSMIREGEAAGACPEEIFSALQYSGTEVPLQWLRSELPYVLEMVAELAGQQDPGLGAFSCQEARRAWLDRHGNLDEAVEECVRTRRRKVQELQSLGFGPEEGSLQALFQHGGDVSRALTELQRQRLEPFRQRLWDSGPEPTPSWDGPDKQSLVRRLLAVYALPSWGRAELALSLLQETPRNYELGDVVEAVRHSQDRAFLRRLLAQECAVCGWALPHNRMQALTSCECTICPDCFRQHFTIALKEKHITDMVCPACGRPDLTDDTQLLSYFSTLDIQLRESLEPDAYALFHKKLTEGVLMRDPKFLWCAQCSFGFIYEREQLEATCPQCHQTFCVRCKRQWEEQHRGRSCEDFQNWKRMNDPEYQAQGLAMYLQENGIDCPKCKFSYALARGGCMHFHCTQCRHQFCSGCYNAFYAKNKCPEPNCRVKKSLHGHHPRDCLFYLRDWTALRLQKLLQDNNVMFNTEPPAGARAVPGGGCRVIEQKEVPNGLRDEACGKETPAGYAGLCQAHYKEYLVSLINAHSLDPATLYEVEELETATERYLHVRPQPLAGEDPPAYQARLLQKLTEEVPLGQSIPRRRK

Target: Flag-STAT1 (UniProt P42224)
Assay: affinity purification with mass spectrometry; Flag-STAT1 as bait against control vectors; gel bands silver stained, digested with trypsin, Orbitrap Elite; cells not given

## endogenous HOIP (from UniProt Q96EP0 1-1072) (enzyme)
  binding: binds

Results are given in words; binding and its absence hold for the method and conditions named. In cells and extracts the contact can be indirect. A yes stands for co-enrichment or nearness to the bait. Other partners may have been found.
